Data taken from PMC4007762.

What was measured:
[1] = molecular target: T1, GST–PTP-PEST-C231S fusion protein (catalytically inactive trapping mutant) (UniProt Q05209); assay: pull-down; substrate trapping: 10 µg GST fusion protein with 1 mg lysate of pervanadate-treated transfected cells (HEK 293T named for Fig. 1B and 6B), modified RIPA buffer, 4°C, 1 hour; western blot with anti-YFP; only the target purified
T1 sequence: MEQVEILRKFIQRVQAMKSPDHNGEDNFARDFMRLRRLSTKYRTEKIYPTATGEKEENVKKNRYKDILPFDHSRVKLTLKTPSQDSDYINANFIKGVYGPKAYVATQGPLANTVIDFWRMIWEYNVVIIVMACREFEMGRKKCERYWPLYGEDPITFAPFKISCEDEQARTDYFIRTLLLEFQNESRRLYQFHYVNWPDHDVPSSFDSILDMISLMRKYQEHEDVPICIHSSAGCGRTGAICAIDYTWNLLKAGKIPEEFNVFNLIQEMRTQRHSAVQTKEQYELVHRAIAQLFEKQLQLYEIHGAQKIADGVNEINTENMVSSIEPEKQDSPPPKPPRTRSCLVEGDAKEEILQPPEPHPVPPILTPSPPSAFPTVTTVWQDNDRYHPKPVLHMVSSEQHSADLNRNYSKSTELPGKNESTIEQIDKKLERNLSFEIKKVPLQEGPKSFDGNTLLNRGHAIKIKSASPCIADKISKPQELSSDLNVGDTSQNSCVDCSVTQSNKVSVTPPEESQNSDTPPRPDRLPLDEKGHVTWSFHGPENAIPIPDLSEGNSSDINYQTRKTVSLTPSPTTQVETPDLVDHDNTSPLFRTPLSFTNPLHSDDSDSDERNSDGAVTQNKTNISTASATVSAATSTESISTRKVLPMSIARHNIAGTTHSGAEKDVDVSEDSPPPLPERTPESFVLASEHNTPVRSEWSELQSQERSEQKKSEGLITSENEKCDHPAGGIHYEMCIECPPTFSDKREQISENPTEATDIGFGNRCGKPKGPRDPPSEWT

[2] = molecular target: T2, YFP–p120-1A Y335F (UniProt P30999); assay: co-IP; YFP-tagged p120 constructs transiently expressed in HCT116-KD cells, immunoprecipitated with JL-8 in modified RIPA buffer; blots for VAV2, cortactin, E-cadherin
T2 sequence: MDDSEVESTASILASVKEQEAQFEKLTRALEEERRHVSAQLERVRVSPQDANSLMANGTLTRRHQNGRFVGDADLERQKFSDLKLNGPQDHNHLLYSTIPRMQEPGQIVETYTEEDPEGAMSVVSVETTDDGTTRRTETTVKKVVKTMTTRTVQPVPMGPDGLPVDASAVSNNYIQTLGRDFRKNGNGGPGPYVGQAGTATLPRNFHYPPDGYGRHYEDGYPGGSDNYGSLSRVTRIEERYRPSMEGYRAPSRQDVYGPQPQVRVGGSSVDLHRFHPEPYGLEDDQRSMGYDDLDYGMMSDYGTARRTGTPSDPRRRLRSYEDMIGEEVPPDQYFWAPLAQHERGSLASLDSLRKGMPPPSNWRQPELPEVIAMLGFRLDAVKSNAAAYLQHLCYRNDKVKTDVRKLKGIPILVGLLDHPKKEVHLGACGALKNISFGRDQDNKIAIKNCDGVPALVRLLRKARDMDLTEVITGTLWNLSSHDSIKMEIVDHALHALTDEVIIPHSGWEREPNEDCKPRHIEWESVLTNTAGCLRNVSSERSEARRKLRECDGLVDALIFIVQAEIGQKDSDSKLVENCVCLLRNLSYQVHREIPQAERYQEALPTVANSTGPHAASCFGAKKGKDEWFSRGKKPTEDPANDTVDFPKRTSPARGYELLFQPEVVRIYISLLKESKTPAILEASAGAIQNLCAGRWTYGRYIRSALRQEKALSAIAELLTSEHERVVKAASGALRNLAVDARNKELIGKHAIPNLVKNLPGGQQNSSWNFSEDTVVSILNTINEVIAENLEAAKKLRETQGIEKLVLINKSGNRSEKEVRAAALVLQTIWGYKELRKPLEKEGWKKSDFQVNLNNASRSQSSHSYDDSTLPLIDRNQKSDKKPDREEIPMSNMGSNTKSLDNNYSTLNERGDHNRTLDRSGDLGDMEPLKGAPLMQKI

[3] = molecular target: T1, GST–PTP-PEST-C231S fusion protein (catalytically inactive trapping mutant); assay: condition: 10 µg fusion protein per 1 mg of cell lysate; pull-down; substrate trapping: 10 µg GST fusion protein with 1 mg lysate of pervanadate-treated transfected cells (HEK 293T named for Fig. 1B and 6B), modified RIPA buffer, 4°C, 1 hour; western blot with anti-YFP; only the target purified
[4] = molecular target: T3, p120 catenin, endogenous (human cell lines) (human (endogenous in KM12C, HEK 293T, HCT116)) (UniProt O60716); assay: co-IP; endogenous p120 immunoprecipitated with monoclonal p120 antibody from HCT116-NT and HCT116-KD cells in modified RIPA buffer; blots for VAV2, cortactin, p190 RhoGAP
T3 sequence: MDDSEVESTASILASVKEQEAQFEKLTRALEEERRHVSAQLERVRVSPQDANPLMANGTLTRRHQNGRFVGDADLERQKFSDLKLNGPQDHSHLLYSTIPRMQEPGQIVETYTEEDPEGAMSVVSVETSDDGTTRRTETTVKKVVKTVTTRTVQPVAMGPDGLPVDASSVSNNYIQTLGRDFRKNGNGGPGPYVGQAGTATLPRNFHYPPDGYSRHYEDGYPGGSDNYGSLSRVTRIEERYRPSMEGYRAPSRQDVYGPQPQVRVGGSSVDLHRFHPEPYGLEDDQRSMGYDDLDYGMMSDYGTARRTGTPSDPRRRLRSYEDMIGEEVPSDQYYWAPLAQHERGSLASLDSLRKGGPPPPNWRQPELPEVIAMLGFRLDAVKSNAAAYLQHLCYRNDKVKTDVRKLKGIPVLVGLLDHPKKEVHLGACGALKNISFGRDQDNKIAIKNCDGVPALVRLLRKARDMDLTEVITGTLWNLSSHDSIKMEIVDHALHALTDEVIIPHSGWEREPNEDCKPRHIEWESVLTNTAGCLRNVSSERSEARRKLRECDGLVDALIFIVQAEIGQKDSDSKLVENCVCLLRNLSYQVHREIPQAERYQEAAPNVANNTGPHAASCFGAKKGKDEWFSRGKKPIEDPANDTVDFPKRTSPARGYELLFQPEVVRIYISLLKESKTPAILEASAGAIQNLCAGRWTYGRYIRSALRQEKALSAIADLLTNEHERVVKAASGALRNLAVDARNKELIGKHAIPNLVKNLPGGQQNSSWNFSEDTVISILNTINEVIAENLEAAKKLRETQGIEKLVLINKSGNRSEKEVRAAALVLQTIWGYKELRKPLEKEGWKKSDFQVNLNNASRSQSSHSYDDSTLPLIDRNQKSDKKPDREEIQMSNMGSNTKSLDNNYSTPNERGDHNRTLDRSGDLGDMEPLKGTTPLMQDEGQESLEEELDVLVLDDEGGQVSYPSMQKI

[5] = molecular target: GFP-tagged VAV2 C-terminal SH3-SH2-SH3 domain; assay: co-IP; GFP-SH3-SH2-SH3 VAV2 transiently transfected into HCT116-NT or HCT116-KD cells, immunoprecipitated with anti-GFP antibody (48 hours), blot for endogenous p120
[6] = molecular target: E-cadherin, endogenous (human cell lines) (human (endogenous in KM12C, HEK 293T, HCT116)); assay: co-IP; cell-surface E-cadherin bound by DECMA-1 on HCT116 cells on ice (non-targeting or PTP-PEST smart pool siRNA), lysis in 50 mM Tris pH 7.6, 150 mM NaCl, 0.5% NP-40, protein-A–Sepharose; blots for p120, α-catenin, β-catenin

Molecule: C-terminal deletion of p120 (p120-ΔC) (domain or fragment)
binding [1]: binds

Molecule: E-cadherin, endogenous (human cell lines)
binding [2]: binds

B1: p120 catenin, endogenous (human cell lines) (protein, UniProt O60716 1-968)
chain: MDDSEVESTASILASVKEQEAQFEKLTRALEEERRHVSAQLERVRVSPQDANPLMANGTLTRRHQNGRFVGDADLERQKFSDLKLNGPQDHSHLLYSTIPRMQEPGQIVETYTEEDPEGAMSVVSVETSDDGTTRRTETTVKKVVKTVTTRTVQPVAMGPDGLPVDASSVSNNYIQTLGRDFRKNGNGGPGPYVGQAGTATLPRNFHYPPDGYSRHYEDGYPGGSDNYGSLSRVTRIEERYRPSMEGYRAPSRQDVYGPQPQVRVGGSSVDLHRFHPEPYGLEDDQRSMGYDDLDYGMMSDYGTARRTGTPSDPRRRLRSYEDMIGEEVPSDQYYWAPLAQHERGSLASLDSLRKGGPPPPNWRQPELPEVIAMLGFRLDAVKSNAAAYLQHLCYRNDKVKTDVRKLKGIPVLVGLLDHPKKEVHLGACGALKNISFGRDQDNKIAIKNCDGVPALVRLLRKARDMDLTEVITGTLWNLSSHDSIKMEIVDHALHALTDEVIIPHSGWEREPNEDCKPRHIEWESVLTNTAGCLRNVSSERSEARRKLRECDGLVDALIFIVQAEIGQKDSDSKLVENCVCLLRNLSYQVHREIPQAERYQEAAPNVANNTGPHAASCFGAKKGKDEWFSRGKKPIEDPANDTVDFPKRTSPARGYELLFQPEVVRIYISLLKESKTPAILEASAGAIQNLCAGRWTYGRYIRSALRQEKALSAIADLLTNEHERVVKAASGALRNLAVDARNKELIGKHAIPNLVKNLPGGQQNSSWNFSEDTVISILNTINEVIAENLEAAKKLRETQGIEKLVLINKSGNRSEKEVRAAALVLQTIWGYKELRKPLEKEGWKKSDFQVNLNNASRSQSSHSYDDSTLPLIDRNQKSDKKPDREEIQMSNMGSNTKSLDNNYSTPNERGDHNRTLDRSGDLGDMEPLKGTTPLMQDEGQESLEEELDVLVLDDEGGQVSYPSMQKI
binding [5]: binds
binding [6]: binds

Now from value to molecule:

binding [1]: binds weakly
binding [3]: no binding
Molecule: YFP-tagged p120 4A isoform

binding [1]: binds
Molecule: YFP-tagged p120 N-terminal domain (domain or fragment)

binding [4]: no binding
Molecule: p190RhoGAP, endogenous (HCT116 cells) (human (endogenous in HCT116))

No constants are given. Whether binding was seen depends on the method and setting. In cells and extracts the contact can be indirect. For some assays here: A result given as binding can be weak or reduced; the word gives no strength. For some assays here: Tags and fused reporters may be left off the sequences shown. Each block holds one molecule with its values, some of them ahead of it.
